Values quoted from earlier work as cited in patent publication US9180191B2, “Treatment of suicidal ideation or behavior using inhibitors of nicotinic acetylcholine receptors” (UNIVERSITY OF SOUTH FLORIDA, priority 2009, dated 2015).
For at least one compound, name, drawing or mass did not settle the structure.

Conditions: added to lithium or divalproex versus placebo; 58 bipolar I mixed state patients

Compound: Cc1cc2c(s1)Nc1ccccc1N=C2N1CCN(C)CC1 [olanzapine]
- suicidal ideation, Hamilton Depression Scale item 3 scores: significantly reduced suicidal ideation
